Test results published in PMC11005723, “Development of Complementary Photo‐arginine/lysine to Promote Discovery of Arg/Lys hPTMs Interactomes” (Advanced Science, 2024).
Results are given in words; binding and its absence hold for the method and conditions named. Binding seen in cells or lysates may run through a third protein. Some results given as binding are weak or reduced against the parent protein; the word gives no strength.

Biological target: T1, H3K4me3‐R2dz (probe 2)
T1 sequence (peptide, photo-arginine R(dz) at 2; trimethyl-lysine (Kme3) at 4; K(biotin) at 14): ARTKQTARKSTGGKA
Experiment: cross-linking + pull-down; 10 µM biotinylated diazirine peptide probe incubated with HEK293T nuclear lysate (0.5 mg/mL) at 4 °C for 1 h, 365 nm UV 30 min on ice, proteins precipitated and dissolved in 1% SDS PBS, streptavidin agarose, western blot; only the target purified

B1: ING2 (protein, UniProt Q9H160 1-280)
chain: MLGQQQQQLYSSAALLTGERSRLLTCYVQDYLECVESLPHDMQRNVSVLRELDNKYQETLKEIDDVYEKYKKEDDLNQKKRLQQLLQRALINSQELGDEKIQIVTQMLELVENRARQMELHSQCFQDPAESERASDKAKMDSSQPERSSRRPRRQRTSESRDLCHMANGIEDCDDQPPKEKKSKSAKKKKRSKAKQEREASPVEFAIDPNEPTYCLCNQVSYGEMIGCDNEQCPIEWFHFSCVSLTYKPKGKWYCPKCRGDNEKTMDKSTEKTKKDRRSR
binding: binds
